Experimental data reported in the supplement of paper PMC12819154, “High-throughput peptide-centric local stability assay extends protein–ligand identification to membrane proteins, tissues and bacteria” (Nature Structural & Molecular Biology, 2025).
This is one part of the list. Most entries show no effect beyond the scatter of the controls.

Protein sequences, listed by entry. Tags and fused reporters are not part of them. Lines headed by an entry give the natural chain unless they say otherwise; changes in a name come on top.
UniProt Q8CH02: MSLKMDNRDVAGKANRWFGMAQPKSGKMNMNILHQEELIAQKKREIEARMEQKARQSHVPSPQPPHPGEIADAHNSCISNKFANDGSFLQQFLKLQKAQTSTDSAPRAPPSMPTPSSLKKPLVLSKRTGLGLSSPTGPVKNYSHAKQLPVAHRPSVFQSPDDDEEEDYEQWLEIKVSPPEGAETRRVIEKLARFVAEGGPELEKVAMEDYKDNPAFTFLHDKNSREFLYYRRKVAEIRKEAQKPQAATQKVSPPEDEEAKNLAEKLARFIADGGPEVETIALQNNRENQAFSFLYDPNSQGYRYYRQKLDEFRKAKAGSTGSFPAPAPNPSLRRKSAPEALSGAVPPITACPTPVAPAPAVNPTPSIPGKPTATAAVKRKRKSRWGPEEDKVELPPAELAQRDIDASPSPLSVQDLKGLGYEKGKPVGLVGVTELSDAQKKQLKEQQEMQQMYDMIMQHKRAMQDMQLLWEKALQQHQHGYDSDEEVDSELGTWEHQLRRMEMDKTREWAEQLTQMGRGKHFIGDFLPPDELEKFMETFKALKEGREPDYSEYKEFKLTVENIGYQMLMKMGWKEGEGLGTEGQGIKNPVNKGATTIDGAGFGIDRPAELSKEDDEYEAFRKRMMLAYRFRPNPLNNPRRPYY
UniProt Q8CHW4: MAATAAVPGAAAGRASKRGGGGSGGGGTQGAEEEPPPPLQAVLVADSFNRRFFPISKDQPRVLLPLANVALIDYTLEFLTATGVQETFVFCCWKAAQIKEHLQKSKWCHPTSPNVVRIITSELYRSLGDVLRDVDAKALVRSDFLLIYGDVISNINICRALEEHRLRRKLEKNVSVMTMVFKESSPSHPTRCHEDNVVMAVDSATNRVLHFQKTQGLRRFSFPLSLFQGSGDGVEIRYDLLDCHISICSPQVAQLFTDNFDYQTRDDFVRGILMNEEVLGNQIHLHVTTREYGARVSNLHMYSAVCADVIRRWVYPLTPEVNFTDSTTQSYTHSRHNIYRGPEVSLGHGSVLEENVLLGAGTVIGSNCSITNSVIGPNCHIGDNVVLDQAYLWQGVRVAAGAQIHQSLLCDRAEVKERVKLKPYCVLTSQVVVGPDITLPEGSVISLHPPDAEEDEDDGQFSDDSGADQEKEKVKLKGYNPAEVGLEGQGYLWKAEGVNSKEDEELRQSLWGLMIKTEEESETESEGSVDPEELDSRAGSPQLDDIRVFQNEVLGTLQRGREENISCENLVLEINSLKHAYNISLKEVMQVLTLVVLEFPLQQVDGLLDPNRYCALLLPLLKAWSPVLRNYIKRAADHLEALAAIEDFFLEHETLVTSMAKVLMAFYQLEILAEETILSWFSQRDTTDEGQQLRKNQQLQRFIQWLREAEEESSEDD
UniProt Q8CFG8: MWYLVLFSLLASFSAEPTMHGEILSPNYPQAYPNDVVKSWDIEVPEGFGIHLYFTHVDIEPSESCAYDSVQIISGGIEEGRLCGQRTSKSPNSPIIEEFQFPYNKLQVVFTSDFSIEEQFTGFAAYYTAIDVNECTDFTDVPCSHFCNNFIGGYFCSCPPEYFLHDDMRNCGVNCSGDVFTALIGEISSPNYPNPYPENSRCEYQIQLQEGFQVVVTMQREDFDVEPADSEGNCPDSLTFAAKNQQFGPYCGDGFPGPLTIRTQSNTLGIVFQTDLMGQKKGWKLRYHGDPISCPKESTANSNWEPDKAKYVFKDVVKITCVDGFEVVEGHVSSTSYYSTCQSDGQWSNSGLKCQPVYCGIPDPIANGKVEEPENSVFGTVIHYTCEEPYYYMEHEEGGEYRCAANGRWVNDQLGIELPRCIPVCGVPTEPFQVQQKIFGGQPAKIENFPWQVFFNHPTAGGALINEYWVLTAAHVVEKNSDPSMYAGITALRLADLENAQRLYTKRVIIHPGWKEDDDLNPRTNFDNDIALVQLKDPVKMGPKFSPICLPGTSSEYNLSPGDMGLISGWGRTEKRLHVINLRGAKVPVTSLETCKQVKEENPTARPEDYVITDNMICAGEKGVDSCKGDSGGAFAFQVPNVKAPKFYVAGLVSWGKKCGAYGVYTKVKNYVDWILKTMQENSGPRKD
UniProt Q8JZW5: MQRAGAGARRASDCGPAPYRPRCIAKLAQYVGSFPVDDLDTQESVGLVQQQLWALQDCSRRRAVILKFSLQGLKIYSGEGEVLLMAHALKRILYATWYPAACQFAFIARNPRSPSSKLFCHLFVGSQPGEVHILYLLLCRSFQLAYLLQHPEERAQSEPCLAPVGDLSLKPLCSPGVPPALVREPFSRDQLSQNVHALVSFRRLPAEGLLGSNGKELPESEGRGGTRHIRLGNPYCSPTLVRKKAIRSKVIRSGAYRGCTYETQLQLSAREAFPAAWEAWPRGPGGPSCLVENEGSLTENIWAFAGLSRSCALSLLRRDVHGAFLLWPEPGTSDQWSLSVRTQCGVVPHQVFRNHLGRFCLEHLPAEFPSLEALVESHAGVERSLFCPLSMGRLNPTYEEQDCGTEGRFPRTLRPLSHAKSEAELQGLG
UniProt Q8CFQ3: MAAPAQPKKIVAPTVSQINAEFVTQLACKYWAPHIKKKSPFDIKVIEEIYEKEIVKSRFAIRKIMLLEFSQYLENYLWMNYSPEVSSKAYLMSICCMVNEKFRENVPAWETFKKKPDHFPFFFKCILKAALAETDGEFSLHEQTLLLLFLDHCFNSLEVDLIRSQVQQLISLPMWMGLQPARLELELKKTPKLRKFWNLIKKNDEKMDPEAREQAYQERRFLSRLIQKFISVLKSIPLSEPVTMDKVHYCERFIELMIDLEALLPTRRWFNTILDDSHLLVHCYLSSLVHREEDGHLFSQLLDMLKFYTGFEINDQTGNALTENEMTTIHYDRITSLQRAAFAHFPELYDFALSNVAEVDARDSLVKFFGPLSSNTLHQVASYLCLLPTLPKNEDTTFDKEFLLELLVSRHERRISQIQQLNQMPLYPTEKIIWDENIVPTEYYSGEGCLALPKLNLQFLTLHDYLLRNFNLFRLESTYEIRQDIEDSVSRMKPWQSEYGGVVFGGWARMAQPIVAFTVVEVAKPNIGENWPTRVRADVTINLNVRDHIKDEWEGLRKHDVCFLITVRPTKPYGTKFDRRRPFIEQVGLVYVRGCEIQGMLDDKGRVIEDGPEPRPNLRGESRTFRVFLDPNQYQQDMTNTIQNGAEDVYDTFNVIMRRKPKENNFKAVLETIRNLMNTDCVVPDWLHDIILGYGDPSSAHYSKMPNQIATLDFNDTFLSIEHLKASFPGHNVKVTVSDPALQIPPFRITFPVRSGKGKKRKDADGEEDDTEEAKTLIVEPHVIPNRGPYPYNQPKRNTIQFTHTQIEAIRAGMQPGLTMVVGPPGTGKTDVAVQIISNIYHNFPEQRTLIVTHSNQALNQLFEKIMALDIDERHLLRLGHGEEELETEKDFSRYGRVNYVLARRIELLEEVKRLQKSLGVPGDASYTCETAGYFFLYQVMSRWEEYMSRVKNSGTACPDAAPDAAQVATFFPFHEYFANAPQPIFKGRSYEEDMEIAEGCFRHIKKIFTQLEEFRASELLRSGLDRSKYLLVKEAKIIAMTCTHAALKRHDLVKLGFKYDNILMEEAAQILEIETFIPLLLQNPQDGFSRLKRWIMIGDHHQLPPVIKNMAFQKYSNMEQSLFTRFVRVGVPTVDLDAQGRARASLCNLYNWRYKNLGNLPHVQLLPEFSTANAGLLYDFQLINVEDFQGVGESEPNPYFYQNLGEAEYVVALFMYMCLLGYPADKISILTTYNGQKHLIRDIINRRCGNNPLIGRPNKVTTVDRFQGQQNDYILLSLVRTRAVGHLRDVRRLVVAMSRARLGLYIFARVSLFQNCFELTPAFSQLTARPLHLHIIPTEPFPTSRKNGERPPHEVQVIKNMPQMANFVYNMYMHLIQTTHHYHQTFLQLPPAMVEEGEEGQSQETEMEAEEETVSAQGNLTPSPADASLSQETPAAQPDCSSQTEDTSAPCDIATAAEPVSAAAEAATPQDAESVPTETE

Compound: CN[C@@H]1C[C@H]2O[C@@](C)([C@@H]1OC)n1c3ccccc3c3c4c(c5c6ccccc6n2c5c31)C(=O)NC4 [staurosporine]
Assay: log2 fold change of tryptic peptide abundance, ligand vs vehicle (limited proteolysis) (log2 ratio); higher = more trypsin-susceptible (destabilized)
Conditions: ligand concentration: 20 uM; sample: mouse liver crude lysate; replicate design: treated separately

Target	log2 fold change
UniProt Q8CH02 (peptide sequence: MNMNILHQEELIAQK, peptide start residue: 28)	-0.167
UniProt Q8CHW4 (peptide sequence: VAAGAQIHQSLLCDRAEVK, peptide start residue: 398)	-0.301
UniProt Q8CFG8 (peptide sequence: VPVTSLETCK, peptide start residue: 587)	0.232
UniProt Q8JZW5 (peptide sequence: VIRSGAYR, peptide start residue: 250)	-0.345
UniProt Q8CFQ3 (peptide sequence: VIEDGPEPRPNLR, peptide start residue: 607)	-0.353
